Measurements: article PMC11837641
Results are given in words; binding and its absence hold for the method and conditions named. In cells and extracts the contact can be indirect. A yes stands for co-enrichment or nearness to the bait. Other partners may have been found.

Sequences of proteins named here, by UniProt entry; tags and fusion partners are left off. A change or cut given only in a name is not applied to a line headed by its entry. Residues count along the entry.
UniProt Q9H239: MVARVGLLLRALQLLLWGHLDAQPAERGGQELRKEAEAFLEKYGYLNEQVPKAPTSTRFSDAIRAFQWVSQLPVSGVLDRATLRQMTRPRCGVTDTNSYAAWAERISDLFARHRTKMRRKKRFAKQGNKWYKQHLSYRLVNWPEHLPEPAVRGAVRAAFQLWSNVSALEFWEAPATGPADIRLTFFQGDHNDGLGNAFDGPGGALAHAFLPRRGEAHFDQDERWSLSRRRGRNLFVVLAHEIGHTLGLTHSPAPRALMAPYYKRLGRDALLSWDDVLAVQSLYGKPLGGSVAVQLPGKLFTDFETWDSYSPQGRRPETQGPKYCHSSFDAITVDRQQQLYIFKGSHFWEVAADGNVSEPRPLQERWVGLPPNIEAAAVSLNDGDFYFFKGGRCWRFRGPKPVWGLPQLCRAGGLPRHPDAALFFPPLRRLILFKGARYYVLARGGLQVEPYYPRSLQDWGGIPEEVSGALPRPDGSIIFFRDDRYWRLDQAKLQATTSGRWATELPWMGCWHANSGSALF
UniProt P11142: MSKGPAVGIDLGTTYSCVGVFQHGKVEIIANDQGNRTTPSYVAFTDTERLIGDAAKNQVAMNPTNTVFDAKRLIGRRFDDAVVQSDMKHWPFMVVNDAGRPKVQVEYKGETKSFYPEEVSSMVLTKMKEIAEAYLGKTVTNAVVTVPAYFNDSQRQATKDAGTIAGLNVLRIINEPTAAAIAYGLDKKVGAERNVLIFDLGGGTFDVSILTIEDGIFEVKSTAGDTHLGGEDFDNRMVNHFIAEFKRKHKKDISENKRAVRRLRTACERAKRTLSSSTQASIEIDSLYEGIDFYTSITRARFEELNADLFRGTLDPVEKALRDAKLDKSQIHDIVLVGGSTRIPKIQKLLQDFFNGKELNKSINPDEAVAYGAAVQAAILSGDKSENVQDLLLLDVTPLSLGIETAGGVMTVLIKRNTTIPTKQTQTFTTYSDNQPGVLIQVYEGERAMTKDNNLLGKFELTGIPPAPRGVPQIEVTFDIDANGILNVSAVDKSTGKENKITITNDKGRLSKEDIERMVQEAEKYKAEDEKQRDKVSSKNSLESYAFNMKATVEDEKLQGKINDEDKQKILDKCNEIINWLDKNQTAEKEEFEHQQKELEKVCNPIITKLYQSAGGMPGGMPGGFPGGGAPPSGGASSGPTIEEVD
UniProt P08238: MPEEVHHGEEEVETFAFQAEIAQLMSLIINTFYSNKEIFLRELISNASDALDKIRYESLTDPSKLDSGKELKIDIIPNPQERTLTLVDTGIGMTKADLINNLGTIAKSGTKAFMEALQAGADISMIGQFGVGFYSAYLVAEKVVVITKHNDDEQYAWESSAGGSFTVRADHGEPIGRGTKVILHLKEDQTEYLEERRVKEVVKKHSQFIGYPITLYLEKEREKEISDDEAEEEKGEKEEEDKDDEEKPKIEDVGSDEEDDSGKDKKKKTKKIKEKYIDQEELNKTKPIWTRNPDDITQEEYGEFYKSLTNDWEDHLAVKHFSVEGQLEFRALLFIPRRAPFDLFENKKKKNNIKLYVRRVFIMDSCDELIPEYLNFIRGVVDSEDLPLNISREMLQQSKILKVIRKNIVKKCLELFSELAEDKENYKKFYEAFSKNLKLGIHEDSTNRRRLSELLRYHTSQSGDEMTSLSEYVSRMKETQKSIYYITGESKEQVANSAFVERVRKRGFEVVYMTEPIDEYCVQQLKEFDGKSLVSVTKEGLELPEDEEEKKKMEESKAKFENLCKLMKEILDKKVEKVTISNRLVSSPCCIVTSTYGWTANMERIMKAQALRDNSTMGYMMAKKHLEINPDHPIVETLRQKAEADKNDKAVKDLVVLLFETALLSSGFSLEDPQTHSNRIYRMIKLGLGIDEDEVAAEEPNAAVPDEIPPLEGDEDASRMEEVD
UniProt P68363: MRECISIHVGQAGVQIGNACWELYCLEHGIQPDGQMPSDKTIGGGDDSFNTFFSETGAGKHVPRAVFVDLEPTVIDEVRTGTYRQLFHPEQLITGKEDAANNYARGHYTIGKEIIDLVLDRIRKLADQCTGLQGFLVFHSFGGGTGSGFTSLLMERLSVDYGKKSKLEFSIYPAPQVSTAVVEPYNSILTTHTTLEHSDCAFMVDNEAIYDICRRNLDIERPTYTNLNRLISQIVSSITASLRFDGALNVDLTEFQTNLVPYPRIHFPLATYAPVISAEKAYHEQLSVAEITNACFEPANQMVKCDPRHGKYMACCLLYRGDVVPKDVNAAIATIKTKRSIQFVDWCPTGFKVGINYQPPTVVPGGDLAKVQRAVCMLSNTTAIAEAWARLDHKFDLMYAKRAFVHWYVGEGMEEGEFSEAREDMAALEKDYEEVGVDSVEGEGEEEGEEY
UniProt P10809, residues 27-573: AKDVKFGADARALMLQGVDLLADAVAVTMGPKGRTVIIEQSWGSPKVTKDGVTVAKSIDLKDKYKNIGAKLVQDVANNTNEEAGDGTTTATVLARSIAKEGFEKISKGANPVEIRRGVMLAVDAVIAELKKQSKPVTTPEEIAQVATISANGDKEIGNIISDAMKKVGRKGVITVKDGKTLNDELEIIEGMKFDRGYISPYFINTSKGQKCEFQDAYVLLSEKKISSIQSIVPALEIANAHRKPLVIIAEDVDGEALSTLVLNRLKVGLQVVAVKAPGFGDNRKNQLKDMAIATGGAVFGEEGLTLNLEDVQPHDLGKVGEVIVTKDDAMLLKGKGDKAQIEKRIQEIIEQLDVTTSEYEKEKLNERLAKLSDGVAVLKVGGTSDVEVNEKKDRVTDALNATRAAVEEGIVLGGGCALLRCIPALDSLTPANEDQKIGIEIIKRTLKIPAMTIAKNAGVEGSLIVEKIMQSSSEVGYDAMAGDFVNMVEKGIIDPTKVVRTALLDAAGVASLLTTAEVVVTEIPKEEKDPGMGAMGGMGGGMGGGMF
UniProt P30086: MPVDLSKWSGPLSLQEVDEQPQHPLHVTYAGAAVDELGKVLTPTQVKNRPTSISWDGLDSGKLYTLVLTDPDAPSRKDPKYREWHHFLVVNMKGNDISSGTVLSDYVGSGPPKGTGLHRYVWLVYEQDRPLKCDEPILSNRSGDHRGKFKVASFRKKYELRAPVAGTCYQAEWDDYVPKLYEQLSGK
UniProt P06733: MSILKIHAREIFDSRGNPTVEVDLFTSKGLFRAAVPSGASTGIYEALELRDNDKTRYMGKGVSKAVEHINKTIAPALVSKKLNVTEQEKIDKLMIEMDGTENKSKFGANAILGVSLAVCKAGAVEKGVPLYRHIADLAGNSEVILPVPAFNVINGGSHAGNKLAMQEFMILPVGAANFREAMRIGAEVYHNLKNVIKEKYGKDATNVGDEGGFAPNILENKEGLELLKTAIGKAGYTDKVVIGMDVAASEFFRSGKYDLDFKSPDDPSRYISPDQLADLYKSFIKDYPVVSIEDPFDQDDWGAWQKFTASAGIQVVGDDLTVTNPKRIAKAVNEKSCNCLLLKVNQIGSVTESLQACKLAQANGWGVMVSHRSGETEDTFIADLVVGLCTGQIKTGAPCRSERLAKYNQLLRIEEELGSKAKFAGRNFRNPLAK
UniProt P63104: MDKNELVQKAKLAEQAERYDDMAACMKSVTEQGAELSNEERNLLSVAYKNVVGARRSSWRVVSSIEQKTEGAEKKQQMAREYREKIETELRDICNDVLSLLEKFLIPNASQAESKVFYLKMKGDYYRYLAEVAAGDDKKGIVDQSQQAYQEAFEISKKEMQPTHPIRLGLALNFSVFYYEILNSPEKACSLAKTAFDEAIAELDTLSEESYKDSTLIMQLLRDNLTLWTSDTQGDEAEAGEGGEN
UniProt P02545, residues 1-646: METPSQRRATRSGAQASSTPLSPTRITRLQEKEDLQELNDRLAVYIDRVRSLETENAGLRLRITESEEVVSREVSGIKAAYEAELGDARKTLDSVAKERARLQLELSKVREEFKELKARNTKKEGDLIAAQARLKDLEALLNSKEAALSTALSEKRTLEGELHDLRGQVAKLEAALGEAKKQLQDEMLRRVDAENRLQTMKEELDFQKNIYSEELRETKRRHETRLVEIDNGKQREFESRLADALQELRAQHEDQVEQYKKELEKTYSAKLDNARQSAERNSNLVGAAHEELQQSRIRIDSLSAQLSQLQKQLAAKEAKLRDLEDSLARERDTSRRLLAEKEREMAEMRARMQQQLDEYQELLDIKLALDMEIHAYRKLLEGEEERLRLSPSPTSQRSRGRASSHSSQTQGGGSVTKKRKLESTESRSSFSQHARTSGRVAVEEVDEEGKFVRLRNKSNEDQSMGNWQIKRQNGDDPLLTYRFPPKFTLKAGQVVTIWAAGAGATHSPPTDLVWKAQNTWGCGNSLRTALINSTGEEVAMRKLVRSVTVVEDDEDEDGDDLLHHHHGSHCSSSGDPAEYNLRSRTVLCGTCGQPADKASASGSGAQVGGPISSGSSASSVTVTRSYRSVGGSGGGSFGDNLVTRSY
UniProt P62258: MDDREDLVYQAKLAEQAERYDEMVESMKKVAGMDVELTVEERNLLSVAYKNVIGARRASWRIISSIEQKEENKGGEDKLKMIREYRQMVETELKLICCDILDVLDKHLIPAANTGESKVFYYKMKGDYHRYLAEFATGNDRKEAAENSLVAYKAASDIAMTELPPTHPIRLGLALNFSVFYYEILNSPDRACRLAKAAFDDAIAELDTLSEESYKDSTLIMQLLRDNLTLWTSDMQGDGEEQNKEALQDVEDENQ
UniProt P08670: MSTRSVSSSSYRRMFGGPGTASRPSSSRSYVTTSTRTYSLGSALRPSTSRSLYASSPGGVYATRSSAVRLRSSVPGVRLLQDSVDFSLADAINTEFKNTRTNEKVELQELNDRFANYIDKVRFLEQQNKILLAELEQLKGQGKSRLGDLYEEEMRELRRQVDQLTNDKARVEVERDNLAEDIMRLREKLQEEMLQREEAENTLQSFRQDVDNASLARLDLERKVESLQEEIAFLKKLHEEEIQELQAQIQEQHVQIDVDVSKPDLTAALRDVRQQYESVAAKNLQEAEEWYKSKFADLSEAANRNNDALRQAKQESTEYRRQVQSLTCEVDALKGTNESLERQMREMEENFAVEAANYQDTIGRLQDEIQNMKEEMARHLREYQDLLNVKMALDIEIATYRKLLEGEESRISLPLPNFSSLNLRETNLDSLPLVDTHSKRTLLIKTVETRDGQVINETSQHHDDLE
UniProt P07355: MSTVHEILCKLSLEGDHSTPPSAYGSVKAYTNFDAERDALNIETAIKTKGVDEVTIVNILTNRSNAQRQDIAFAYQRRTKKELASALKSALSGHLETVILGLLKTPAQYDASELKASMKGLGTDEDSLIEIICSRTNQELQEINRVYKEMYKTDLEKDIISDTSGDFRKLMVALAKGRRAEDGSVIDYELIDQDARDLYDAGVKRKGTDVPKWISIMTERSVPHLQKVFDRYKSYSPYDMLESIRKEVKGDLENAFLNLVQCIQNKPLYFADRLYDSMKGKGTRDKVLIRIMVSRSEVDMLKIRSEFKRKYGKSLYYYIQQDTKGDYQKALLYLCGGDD
UniProt P14618: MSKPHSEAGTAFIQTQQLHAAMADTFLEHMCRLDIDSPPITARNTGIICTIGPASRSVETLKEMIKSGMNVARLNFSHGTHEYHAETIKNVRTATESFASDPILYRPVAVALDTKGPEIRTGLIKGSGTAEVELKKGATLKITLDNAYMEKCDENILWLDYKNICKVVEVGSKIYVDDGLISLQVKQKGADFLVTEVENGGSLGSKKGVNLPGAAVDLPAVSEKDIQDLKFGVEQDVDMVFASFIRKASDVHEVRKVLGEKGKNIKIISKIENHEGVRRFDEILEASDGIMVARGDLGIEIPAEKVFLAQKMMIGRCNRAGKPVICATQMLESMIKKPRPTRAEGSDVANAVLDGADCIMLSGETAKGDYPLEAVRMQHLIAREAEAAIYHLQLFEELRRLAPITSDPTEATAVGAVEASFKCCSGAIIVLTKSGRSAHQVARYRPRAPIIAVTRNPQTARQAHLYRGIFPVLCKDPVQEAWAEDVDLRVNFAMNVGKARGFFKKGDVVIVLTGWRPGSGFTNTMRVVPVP
UniProt Q9BVL2: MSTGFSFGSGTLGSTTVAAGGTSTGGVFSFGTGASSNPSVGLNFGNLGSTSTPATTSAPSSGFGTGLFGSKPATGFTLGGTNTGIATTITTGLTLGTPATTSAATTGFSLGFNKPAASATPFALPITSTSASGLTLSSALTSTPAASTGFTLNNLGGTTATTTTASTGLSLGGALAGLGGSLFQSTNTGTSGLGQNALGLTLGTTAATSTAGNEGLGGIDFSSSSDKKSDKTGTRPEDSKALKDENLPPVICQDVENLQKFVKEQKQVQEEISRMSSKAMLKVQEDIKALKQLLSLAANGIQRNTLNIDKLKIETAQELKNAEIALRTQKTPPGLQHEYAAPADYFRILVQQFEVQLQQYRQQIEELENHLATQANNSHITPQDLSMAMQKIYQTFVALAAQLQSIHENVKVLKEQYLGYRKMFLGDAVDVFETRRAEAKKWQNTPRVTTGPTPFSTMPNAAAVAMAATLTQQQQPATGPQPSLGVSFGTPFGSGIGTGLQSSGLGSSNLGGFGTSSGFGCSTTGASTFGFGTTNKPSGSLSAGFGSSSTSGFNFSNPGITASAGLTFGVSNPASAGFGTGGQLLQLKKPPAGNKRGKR

Biological target: matrix metalloproteinase 28 (MMP28) (human (endogenous in AsPC-1 and BxPC-3)) (UniProt Q9H239)
Assay: affinity purification with mass spectrometry; AsPC-1 whole-cell lysate (enhanced RIPA buffer) incubated with MMP28 antibody or IgG control at 4 °C overnight, protein A/G agarose 3 h, five RIPA washes; LC-MS/MS; top 30 candidates listed

binding, binds:
HSPA8 (from UniProt P11142 1-646)
HSP90AB1 (from UniProt P08238 1-724)
TUBA1B (from UniProt P68363 1-451)
HSPD1 (from UniProt P10809 27-573)
PEBP1 (from UniProt P30086 1-187)
ENO1 (from UniProt P06733 1-434)
YWHAZ (from UniProt P63104 1-245)
LMNA (from UniProt P02545 1-646)
IGKV4-1 (from UniProt P06312 21-121)
YWHAE (from UniProt P62258 1-255)
GPI (from UniProt P06744 1-558)
GAPDH (from UniProt P04406 1-335)
FLNB (from UniProt O75369 1-2602)
VIM (from UniProt P08670 1-466)
annex protein A2 (ANXA2) (from UniProt P07355 1-339)
ACTN4 (from UniProt O43707 1-911)
PKM (from UniProt P14618 1-531)

Biological target: matrix metalloproteinase 28 (MMP28) (human (endogenous in AsPC-1 and BxPC-3)) (UniProt Q9H239)
Assay: affinity purification with mass spectrometry; BxPC-3 whole-cell lysate (enhanced RIPA buffer) incubated with MMP28 antibody or IgG control at 4 °C overnight, protein A/G agarose 3 h, five RIPA washes; LC-MS/MS; top 30 candidates listed

binding, binds:
FLNC (from UniProt Q14315 1-2725)
RPLP2 (from UniProt P05387 1-115)
ENO1 (from UniProt P06733 1-434)
NUPL1 (from UniProt Q9BVL2 1-599)
TUBA1C (from UniProt Q9BQE3 1-449)
TLN1 (from UniProt Q9Y490 1-2541)
TTN (from UniProt Q8WZ42 1-34350)
PCLO (from UniProt Q9Y6V0 1-5142)
GAPDH (from UniProt P04406 1-335)
MUC19 (from UniProt Q7Z5P9 22-8384)
annex protein A2 (ANXA2) (from UniProt P07355 1-339)
PKM (from UniProt P14618 1-531)
GSTP1 (from UniProt P09211 1-210)
